Paper doi:10.1101/2021.08.04.454762
These are yes or no findings as the source states them, for the method shown. Binding seen in cells or lysates may run through a third protein. Some binding calls cover weakened binding; strength is not graded here.

Amino acid sequences for entries named in this document (tags omitted).
UniProt Q15554: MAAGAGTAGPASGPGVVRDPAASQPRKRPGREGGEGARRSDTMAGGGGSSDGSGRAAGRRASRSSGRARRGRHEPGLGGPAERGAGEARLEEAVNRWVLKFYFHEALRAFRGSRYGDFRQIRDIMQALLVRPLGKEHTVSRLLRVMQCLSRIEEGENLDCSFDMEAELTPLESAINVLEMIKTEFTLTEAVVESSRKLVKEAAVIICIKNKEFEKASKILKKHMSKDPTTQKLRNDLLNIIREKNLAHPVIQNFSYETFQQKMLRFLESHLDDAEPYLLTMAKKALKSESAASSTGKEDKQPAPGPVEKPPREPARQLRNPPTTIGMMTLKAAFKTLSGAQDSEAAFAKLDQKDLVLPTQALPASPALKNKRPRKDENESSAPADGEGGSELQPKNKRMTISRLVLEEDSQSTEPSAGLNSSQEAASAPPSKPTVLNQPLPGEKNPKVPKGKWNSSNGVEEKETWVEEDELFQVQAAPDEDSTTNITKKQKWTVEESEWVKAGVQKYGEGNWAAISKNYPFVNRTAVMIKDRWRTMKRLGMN
UniProt P54274: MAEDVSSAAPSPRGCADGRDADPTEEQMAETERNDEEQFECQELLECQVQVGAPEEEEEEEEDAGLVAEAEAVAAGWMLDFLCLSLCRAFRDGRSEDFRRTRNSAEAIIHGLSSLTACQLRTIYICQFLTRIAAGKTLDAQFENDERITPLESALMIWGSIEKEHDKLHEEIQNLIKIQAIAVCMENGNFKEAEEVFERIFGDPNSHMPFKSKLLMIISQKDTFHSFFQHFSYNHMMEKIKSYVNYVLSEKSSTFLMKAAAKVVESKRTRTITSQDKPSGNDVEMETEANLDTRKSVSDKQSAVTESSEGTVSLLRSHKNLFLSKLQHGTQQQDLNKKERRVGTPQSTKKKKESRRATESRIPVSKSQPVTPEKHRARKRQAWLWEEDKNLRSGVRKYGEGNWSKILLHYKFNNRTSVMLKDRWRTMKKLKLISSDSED
UniProt O43524: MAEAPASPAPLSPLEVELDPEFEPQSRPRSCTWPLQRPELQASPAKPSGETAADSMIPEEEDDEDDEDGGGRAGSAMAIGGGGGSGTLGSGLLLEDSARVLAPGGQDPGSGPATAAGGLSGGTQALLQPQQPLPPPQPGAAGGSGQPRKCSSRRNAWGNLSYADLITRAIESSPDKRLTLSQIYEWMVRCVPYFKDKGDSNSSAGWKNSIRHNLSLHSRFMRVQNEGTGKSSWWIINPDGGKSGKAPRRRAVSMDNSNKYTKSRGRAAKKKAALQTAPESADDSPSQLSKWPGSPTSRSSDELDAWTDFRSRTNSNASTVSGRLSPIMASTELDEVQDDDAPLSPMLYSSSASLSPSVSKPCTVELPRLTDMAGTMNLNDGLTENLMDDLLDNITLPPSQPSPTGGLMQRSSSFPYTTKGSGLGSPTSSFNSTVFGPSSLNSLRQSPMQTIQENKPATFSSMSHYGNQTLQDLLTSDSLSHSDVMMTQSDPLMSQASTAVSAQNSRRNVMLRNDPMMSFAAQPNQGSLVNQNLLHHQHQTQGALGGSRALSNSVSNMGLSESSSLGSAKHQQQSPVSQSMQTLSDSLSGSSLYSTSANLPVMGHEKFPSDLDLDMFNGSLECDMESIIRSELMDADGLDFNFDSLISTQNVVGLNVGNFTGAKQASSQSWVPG

Key:
[1] = biological target: telomeric repeat binding factor 2 (TRF2) (human (endogenous in skeletal muscle biopsies and BJ-HELT fibroblasts)) (UniProt Q15554); experiment: proximity ligation
[2] = biological target: TRF1 (human (endogenous in myotubes)) (UniProt P54274); experiment: proximity ligation
[3] = biological target: telomeric repeat binding factor 2 (TRF2) (human (endogenous in skeletal muscle biopsies and BJ-HELT fibroblasts)) (UniProt Q15554); experiment: co-IP

Row | binding [1] | binding [2] | binding [3] | Substance
1 | binds | binds | binds | FOXO3a (from UniProt O43524 1-673)
2 | binds | – | – | full-length FOXO3a (pWPIR-FOXO3aWT-GFP) (from UniProt O43524 1-673)
